# Laboratory results taken from patent US11820833B2, “Peptides that inhibit binding of EPCR to its ligand to treat inflammation” (Tel HaShomer Medical Research Infrastructure and Services …, priority 2016, dated 2023).
# “Also recorded” adds a separate entry of the source. Part of at least one peptide drawing is inferred or uncertain, most often the ends. Non-standard residues stand in square brackets, D forms with d. Residues, ends and D or L forms follow the SMILES beside them. *: point of attachment. Gla = N[C@@H](CC(C(=O)O)C(=O)O)C(=O)O; Tos = Cc1ccc(S(=O)(=O)*)cc1
# Columns and labels:
# Thrombin [1] = assay: Thrombin activity in brain slices of LPS-injected mice (fluorimetric assay); format: in vivo; conditions: LPS 1 mg/kg i.p.; Pep6 10 μM in saline, 100 μl i.p., 12 hours prior to LPS; 24 hours post LPS
# PAR-1 = PAR-1 protein level in brain slices of LPS-injected mice (western blot); format: in vivo; conditions: LPS 1 mg/kg i.p.; Pep6 10 μM in saline, 100 μl i.p., 12 hours prior to LPS; 24 hours post LPS
# Protein C (PC) = assay: Gene expression in brain slices by real-time PCR: Protein C; format: in vivo, mice; conditions: LPS 1 mg/kg i.p.; pre-treatment with Pep6 12 hours prior to LPS
# Factor X = assay: Gene expression in brain slices by real-time PCR: Factor X; format: in vivo, mice; conditions: LPS 1 mg/kg i.p.; pre-treatment with Pep6 12 hours prior to LPS
# Prothrombin = assay: Gene expression in brain slices by real-time PCR: Prothrombin; format: in vivo, mice; conditions: LPS 1 mg/kg i.p.; pre-treatment with Pep6 12 hours prior to LPS
# [2] = tested on: Long Term Potentiation (LTP), hippocampal slices; assay: In vitro electrophysiology, Long Term Potentiation in hippocampal slices; set-up: species or system mice; conditions: peptides at 10 μM, HFS 100 Hz 1 second
# Protocol: The efficacy of the peptides was tested using in vitro electrophysiology. Here the present inventors tested whether these peptides have similar effects as aPC in enhancing Long Term Potentiation. Briefly, mice (10-12 weeks of age) were rapidly decapitated, the hippocampus was removed, and 400 μm slices were prepared using a vibroslicer. Slices were incubated for 1.5 hours in a humidified, carbogenated (5% CO2 and 95% O2) gas atmosphere at 33±1° C. and were perfused with ACSF [containing (in mm) 124 NaCl, 2 KCl, 26 NaHCO3, 1.24 KH2PO4, 2.5 CaCl2, 2 MgSO4, and 10 glucose, pH 7.4] in a standard interface chamber. Recordings were made with a glass pipette containing 0.75 m NaCl (4 MΩ) placed in the stratum radiatum CA1.
# Stimulation was evoked using a Master 8 pulse stimulator (A.M.P.I., Jerusalem, Israel) and was delivered through a bipolar nichrome electrode placed at a side of the recording electrode. LTP was induced by high-frequency stimulation (HFS) consisting of 100 pulses at twice the test intensity, delivered at a frequency of 100 Hz (100 Hz, 1 second). Before applying the tetanic stimulation, baseline values were recorded at a frequency of 0.033 Hz. Responses were digitized at 5 kHz and stored on a computer. Off-line analysis and data acquisition were performed using the LTP Program (Anderson and Collingridge, 2001). Peptides were tested at a concentration of 10 μM.
# N9 microglia cells = assay: Proliferation assay (XTT), LPS-induced proliferation; format: cell-based, Mice; conditions: 24 hours, FBS-free medium
# PAR1 = assay: Western blot in N9 microglia cells: PAR1; format: cell-based, Mice; conditions: LPS 0.1 μg/ml + 1 μM PEP6, 24 hours, vs LPS
# FXa = assay: Western blot in N9 microglia cells: FXa; format: cell-based, Mice; conditions: LPS 0.1 μg/ml + 1 μM PEP6, 24 hours, vs control and LPS
# Thrombin [3] = assay: Western blot in N9 microglia cells: Thrombin; format: cell-based, Mice
# EPCR = assay: Western blot in N9 microglia cells: EPCR; format: cell-based, Mice; conditions: LPS 0.1 μg/ml + 1 μM PEP6, 24 hours, vs LPS
# PC = assay: Western blot in N9 microglia cells: PC; format: cell-based, Mice; conditions: LPS 0.1 μg/ml + 1 μM PEP6, 24 hours, vs LPS
# TNF-alpha = assay: Western blot in N9 microglia cells: TNF-alpha; format: cell-based, Mice; conditions: LPS 0.1 μg/ml + 1 μM PEP6, 24 hours, vs LPS
# CD40 = assay: Western blot in N9 microglia cells: CD40; format: cell-based, Mice; conditions: LPS 0.1 μg/ml + 1 μM PEP6, 24 hours, vs LPS
# FXa mRNA = assay: Real-time PCR mRNA expression in N9 microglia cells: FXa; format: cell-based, Mice; conditions: LPS+PEP6, relative to control untreated cells
# FVII mRNA = assay: Real-time PCR mRNA expression in N9 microglia cells: FVII; format: cell-based, Mice; conditions: LPS+PEP6, relative to control untreated cells
# EPCR mRNA = assay: Real-time PCR mRNA expression in N9 microglia cells: EPCR; format: cell-based, Mice; conditions: LPS+PEP6, relative to control untreated cells
# PC mRNA = assay: Real-time PCR mRNA expression in N9 microglia cells: PC; format: cell-based, Mice
# [4] = tested on: LPS-induced neuroinflammation animal model; assay: Novel Object Recognition (NOR) test in LPS-injected mice; format: in vivo; conditions: LPS 1 mg/kg + PEP6 350 μg/kg injected 2 hours after LPS; LPS 10.19±2.03, control 18.45±5.22
# [5] = tested on: LPS-induced neuroinflammation animal model; assay: Staircase test in LPS-injected mice; format: in vivo; conditions: LPS 1 mg/kg + PEP6 350 μg/kg 2 hours after LPS, 3 minutes
smiles,measurement,setting,value
"Cc1ccc(S(=O)(=O)N[C@@H](CC(C(=O)O)C(=O)O)C(=O)N[C@@H](CCC(=O)O)C(=O)N[C@@H](C)C(=O)N[C@@H](CCCNC(=N)N)C(N)=O)cc1 [Pep6, Tos-{Gla}-EAR-NH2] (Tos-[Gla]EAR-NH2)",Thrombin activity in brain slices,Thrombin [1],reduced down to basal levels; also recorded: corrected
same,PAR-1 protein level in brain slices (corrected to actin),PAR-1,reduced down to basal levels; also recorded: corrected
same,Protein C gene expression in brain slices,Protein C (PC),corrected
same,Factor X gene expression in brain slices,Factor X,not Factor X and Prothrombin expression was corrected
same,Prothrombin gene expression in brain slices,Prothrombin,not Factor X and Prothrombin expression was corrected
same,Effect on Long Term Potentiation (LTP),[2],enhanced
same,Proliferation (OD450-OD630),N9 microglia cells; LPS 0.1 + PEP6 1 μM,0.48±0.01
same,Proliferation (OD450-OD630),N9 microglia cells; LPS 0.1 + PEP6 10 μM,0.40±0.02
same,PAR1 protein expression (normalized to HSC70),PAR1,minimized; also recorded: reduced
same,FXa protein expression (normalized to HSC70),FXa,decrease; also recorded: reduced
same,Thrombin protein expression (normalized to HSC70),"Thrombin [3]; LPS 0.1 μg/ml + 1 μM PEP6, 24 hours",normalized or decreased
same,"Thrombin protein level, trend for increase","Thrombin [3]; PEP6 treatment alone (1 μM), 24 hours",not seen
same,EPCR protein expression (normalized to HSC70),EPCR,further increased
same,PC protein expression (normalized to HSC70),PC,further increased
same,TNF-alpha protein expression (normalized to HSC70),TNF-alpha,normalized
same,CD40 protein expression (normalized to HSC70),CD40,decreased
same,FXa mRNA expression,FXa mRNA,increased
same,FVII mRNA expression,FVII mRNA,not affected
same,EPCR mRNA expression,EPCR mRNA,increased
same,PC mRNA expression,"PC mRNA; LPS+PEP6, vs LPS",further increased
same,PC mRNA expression,"PC mRNA; PEP6 by itself, non-activated cells",significantly increased
same,Duration time spent near the objects,[4],17.48 ± 3.7 s
same,Number of rearing events,"[5]; control 14.29±1.82, LPS 5.07±0.65",9.16±2.62
same,Number of stairs climbed,"[5]; control 16.85±2.48, LPS 8.71±1.41",15.83±2.33
